Assay [1] addresses wild-type CSA protein tagged at the C-terminus with the Flag and HA epitopes (UniProt Q13216). Description: co-IP; tandem affinity purification (TAP): total extracts of 2x10^8 CS3BE-wtCSA cells, anti-Flag M2 affinity gel o.n. 4°C, elution with Flag peptide in TBS, then anti-HA agarose o.n. 4°C, washes with 1X IP low buffer, immunoblotting; cells in basal condition and after 20 µM CCCP; parental CS3BE cells as control. Background: Immunoblotting shows a protein as a band on a membrane.

Sequences of proteins named here, by UniProt entry; tags and fusion partners are left off.
UniProt Q13216: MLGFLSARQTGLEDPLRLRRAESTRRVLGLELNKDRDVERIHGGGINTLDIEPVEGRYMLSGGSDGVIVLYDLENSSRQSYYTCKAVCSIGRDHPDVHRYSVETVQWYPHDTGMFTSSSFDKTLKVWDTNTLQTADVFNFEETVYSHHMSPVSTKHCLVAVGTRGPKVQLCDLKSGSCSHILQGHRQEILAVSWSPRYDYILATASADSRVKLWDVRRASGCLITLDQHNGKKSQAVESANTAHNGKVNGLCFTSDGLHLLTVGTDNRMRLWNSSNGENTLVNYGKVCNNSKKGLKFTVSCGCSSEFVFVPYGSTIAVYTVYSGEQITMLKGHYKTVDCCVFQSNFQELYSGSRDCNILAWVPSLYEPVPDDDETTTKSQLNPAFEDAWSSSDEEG
UniProt O00429: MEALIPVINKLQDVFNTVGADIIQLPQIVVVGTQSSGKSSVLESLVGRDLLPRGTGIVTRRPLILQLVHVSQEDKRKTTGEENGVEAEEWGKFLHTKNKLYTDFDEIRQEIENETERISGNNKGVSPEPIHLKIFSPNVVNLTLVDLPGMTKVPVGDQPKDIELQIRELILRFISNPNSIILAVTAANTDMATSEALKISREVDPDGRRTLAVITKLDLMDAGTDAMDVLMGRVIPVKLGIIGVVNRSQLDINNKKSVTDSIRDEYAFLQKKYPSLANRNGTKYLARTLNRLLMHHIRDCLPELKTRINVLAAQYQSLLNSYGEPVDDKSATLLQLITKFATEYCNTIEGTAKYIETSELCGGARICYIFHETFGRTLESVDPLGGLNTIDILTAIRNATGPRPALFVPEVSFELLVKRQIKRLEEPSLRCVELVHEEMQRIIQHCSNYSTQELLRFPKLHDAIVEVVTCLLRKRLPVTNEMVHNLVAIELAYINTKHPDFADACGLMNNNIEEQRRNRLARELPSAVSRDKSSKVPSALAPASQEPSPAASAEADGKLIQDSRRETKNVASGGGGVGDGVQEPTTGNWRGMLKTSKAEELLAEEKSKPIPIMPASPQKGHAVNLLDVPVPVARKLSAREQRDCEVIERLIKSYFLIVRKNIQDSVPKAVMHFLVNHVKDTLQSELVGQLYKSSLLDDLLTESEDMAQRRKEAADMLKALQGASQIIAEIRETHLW

Assay [2] concerns the target dynamin-related protein DRP1 (human (endogenous in CS3BE-wtCSA)) (UniProt O00429). Briefly: co-IP; total extracts of 2x10^7 cells immunoprecipitated with anti-Drp1 antibody (5 µg, o.n. 4°C) and protein A/G agarose beads, washes with 1X IP high buffer, immunoblotting; CS3BE and CS3BE-wtCSA cells.

These are yes or no findings as the source states them, for the method shown. In cells and extracts the contact can be indirect. Some entries that bind do so weakly or less than the wild type.

Take “dynamin-related protein DRP1 (from UniProt O00429 1-736)”: the binding entry in assay [1] is given as “binds”.
For the substance “wild-type CSA protein tagged at the C-terminus with the Flag and HA epitopes (from UniProt Q13216 1-396)”, the binding result in assay [2] was “binds”.

The record behind these values is paper PMC5732694.
